From PubChem BioAssay AID1487 (National Center for Advancing Translational Sciences (NCATS), 2009)
Some of the results follow. These are further read-outs of the screen, such as a control signal, another cell line or another target. No call is given for them. Most of these compounds were active or inconclusive in the main read-out, so they are no random draw. Words in brackets tell the shape of the fitted curve; partial curves, single points and poor fits give uncertain potencies.

Assay: qHTS Assay for Modulators of Lamin A Splicing
Conditions: HeLa LMNA splicing GFP/RFP minigene ratio, 48 h
Procedure, shortened: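 S3 HeLa stable clones carrying a lamin A-EGFP splicing minigene plus DsRed2 were seeded at 600 cells/well in Opti-MEM with 2% FBS, pin-dosed and incubated 48 h at 37°C. Acumen cytometry (488 nm) gave the GFP/RFP total-intensity ratio.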

[1] = measured here: GFP splicing reporter channel
[2] = measured here: RFP viability control channel

Row | SMILES | AC50 [1] | AC50 [2]
1 | O=C1c2oc3ccccc3c(=O)c2C(c2ccccc2)N1Cc1ccc2c(c1)OCO2 (stereo not drawn) | 0.0355 µM [rising, full curve, poor fit] | 
2 | O=C(CS(=O)CC(=O)N(c1cccc(F)c1)C(C(=O)NC1CCCCC1)c1ccco1)Nc1ccc(F)cc1 (stereo not drawn) | 0.0112 µM [rising, full curve, poor fit] | 
3 | C=CCN1C(=O)/C(=C/c2ccc(OCC(=O)O)cc2)S/C1=N/c1nccs1 | 11.2 µM [rising, partial curve, poor fit] | 
4 | O=C(C[n+]1cccc(CNC(=O)c2ccc(OC(F)F)cc2)c1)Nc1ccc(SC(F)F)cc1 | 25.1 µM [rising, single point] | 28.2 µM [rising, single point]
5 | CC1CC/C(=C\c2ccc3c(c2)OCO3)C(=O)/C1=C/c1ccc2c(c1)OCO2 (stereo not drawn) | 35.5 µM [falling, single point] | 35.5 µM [falling, single point]
6 | Cc1ccc(CSc2nnc(-c3ccc(NS(=O)(=O)c4ccccc4)cc3)o2)cc1 |  | 35.5 µM [rising, single point]
7 | CCN1C(=O)c2ccccc2Sc2ccc(C(=O)NCCCN(CC(C)C)CC(C)C)cc21 | 11.2 µM [falling, partial curve, poor fit] | 
8 | O=C1CCCN1CCC1CCN(C2CC(=O)N(Cc3ccc(N4CCCC4=O)cc3)C2=O)CC1 (stereo not drawn) | 11.2 µM [rising, single point] | 
9 | COc1cc(C2CC(=O)Oc3c2c(=O)n(C)c2ccccc32)ccc1O (stereo not drawn) | 15.8 µM [falling, single point] | 
10 | CCC1(C)OCC(Cn2c3ccccc3c3ccccc32)O1 (stereo not drawn) |  | 35.5 µM [rising, single point]
11 | Cc1ccc(NC(=O)c2ccc(OC(F)F)cc2)cc1S(=O)(=O)N(C)C | 20 µM [rising, single point] | 22.4 µM [rising, single point]
12 | O=[N+]([O-])c1ccc(Nc2nc(N/N=C\c3ccc4c(c3)OCO4)nc(N3CCCCC3)n2)cc1 |  | 8.91 µM [rising, partial curve, poor fit]
13 | CN1CCN(C(=S)c2ccc(-c3cccc(Cl)c3Cl)o2)CC1 | 17.8 µM [rising, single point] | 35.5 µM [rising, single point]
14 | COc1ccc(-c2cc(C(C)=O)c(C)n2CCC(=O)Nc2cc(Cl)ccc2C)cc1 |  | 35.5 µM [falling, partial curve, poor fit]
15 | Cc1ncoc1C(=O)N1CCCC(C(=O)c2cccc(C(F)(F)F)c2)C1 (stereo not drawn) |  | 0.0708 µM [falling, full curve, poor fit]
16 | CCOC(=O)C1CCN(S(=O)(=O)c2ccc3c(c2)N(C)C(=O)CC(=O)N3C)CC1 | 10 µM [rising, partial curve, poor fit] | 
17 | CCOc1ccccc1NC(=O)C1=C(C)NC(=S)NC1c1cccs1 (stereo not drawn) |  | 10 µM [rising, single point]
18 | O=C(COC(=O)c1cccc(Br)c1)NCCC1=CCCCC1 | 0.01 µM [falling, full curve, poor fit] | 
19 | Cc1cc(NC(=O)CSc2ccccn2)no1 | 1.12 µM [falling, partial curve, poor fit] | 
20 | Cc1cc(=O)n(CC(=O)N2CCN(c3ccccc3F)CC2)c2c1c(C)nn2C | 0.00891 µM [falling, full curve, poor fit] | 
21 | O=C(NNC1CC(=O)N(c2ccc(Cl)cc2)C1=O)c1ccco1 (stereo not drawn) | 0.00316 µM [rising, full curve, poor fit] | 0.112 µM [rising, full curve]
22 | CCOC(=O)c1[nH]c(C)c(CCC(=O)Nc2cc(C)ccc2OC)c1C |  | 35.5 µM [rising, single point]
23 | CCCc1ccc(-c2cc(C(=O)N/N=C/c3ccc([N+](=O)[O-])o3)c3ccccc3n2)cc1 | 35.5 µM [falling, single point] | 3.98 µM [falling, partial curve, poor fit]
24 | CS(=O)(=O)c1cnc2c(-c3ccsc3)cnn2c1N | 25.1 µM [rising, single point] | 
25 | COc1ccc(OC)c(/C=N/NC(=O)CC(=O)NCc2ccccc2)c1 | 31.6 µM [falling, partial curve, poor fit] | 35.5 µM [falling, single point]
26 | CCN(CC)C(=O)c1sc(NC(=O)c2c(OC)cccc2OC)c(C#N)c1C | 0.00891 µM [rising, full curve, poor fit] | 
27 | CCCSc1nc2ccsc2c(=O)n1CC | 3.16 µM [rising, partial curve, poor fit] | 
28 | CC(=O)Nc1nnc(CCS(=O)(=O)c2ccc(Cl)cc2)s1 | 10 µM [falling, partial curve] | 

Row | SMILES | AC50 [1] | AC50 [2]
29 | COc1ccc(Cn2ccn(Cc3cccc(OC)c3)c(=O)c2=O)cc1 |  | 17.8 µM [rising, single point]
30 | c1ccc(Nc2nn[nH]n2)cc1 |  | 0.0355 µM [rising, full curve, poor fit]
31 | COc1cc2ccccc2cc1C(=O)Nc1ccc(Cc2ccncc2)cc1 |  | 4.47 µM [rising, full curve, poor fit]
32 | CCN1c2ccccc2-c2nc3ccccc3n2C1c1cccs1 (stereo not drawn) |  | 11.2 µM [rising, single point]
33 | NC(=O)c1cc2cc(Cc3ccccc3Cl)ccc2oc1=O |  | 0.02 µM [falling, full curve]
34 | CN(C)c1ccc(N2CN=C3SCC(=O)N3C2)cc1 | 12.6 µM [falling, single point] | 11.2 µM [falling, partial curve]
35 | COc1ccc(CN(C(=O)CSc2nnc(-c3ccc(OC)c(OC)c3)o2)c2ccc(F)cc2)cc1 |  | 35.5 µM [rising, single point]
36 | COc1cc2nc(NC(=O)c3ccc(S(=O)(=O)N4CCOCC4)cc3)sc2cc1OC | 0.562 µM [rising, full curve, poor fit] | 
37 | N[C@@H](CSCCCO)C(=O)O | 0.0631 µM [falling, single point] | 
38 | N#Cc1ccc(/C=C/C(=O)c2ccccc2)cc1 |  | 31.6 µM [falling, single point]
39 | CCOC(=O)c1cccc(NC(=O)CCn2c(-c3ccc(F)cc3)cc(C(=O)OCC)c2C)c1 | 2.24 µM [falling, partial curve] | 7.08 µM [falling, partial curve, poor fit]
40 | COC(=O)c1ccccc1NC(=O)CN(CCc1ccccc1)S(C)(=O)=O | 0.398 µM [rising, full curve, poor fit] | 4.47 µM [rising, full curve, poor fit]
41 | COc1cccc(/C=N/NC(=O)Cn2nc(C)c([N+](=O)[O-])c2C)c1O |  | 11.2 µM [rising, partial curve]
42 | COc1cc2c(cc1NC(=O)CSc1nc3ccccc3[nH]1)oc1ccccc12 | 15.8 µM [rising, single point] | 22.4 µM [rising, single point]
43 | Fc1cccc(COc2ccccc2CNc2ccccc2)c1 |  | 35.5 µM [rising, single point]
44 | CCCc1cc(N2CCCC(C(=O)Nc3ccc(OC)cc3OC)C2)n2ncnc2n1 (stereo not drawn) |  | 35.5 µM [rising, single point]
45 | O=c1c(-c2ccc(O)cc2)coc2cc(OC3OC(CO)C(O)C(O)C3O)cc(O)c12 (stereo not drawn) |  | 31.6 µM [rising, single point]
46 | COC(=O)C(NC(=O)c1c(C)nn(C)c1Cl)c1ccccc1 (stereo not drawn) | 10 µM [falling, partial curve, poor fit] | 0.0447 µM [falling, full curve, poor fit]
47 | FC(F)(F)c1nc(N2CCCC2)ncc1-c1nnnn1-c1ccc(Cl)cc1 | 11.2 µM [rising, partial curve] | 12.6 µM [rising, partial curve]
48 | CC(=O)c1ccc(N2C(=O)N(CC(=O)c3ccc(F)cc3)c3ccccc3S2(=O)=O)cc1 |  | 6.31 µM [falling, single point]
49 | Cc1cccc(OCC(=O)N/N=C/c2cc([N+](=O)[O-])ccc2N2CCOCC2)c1 | 3.16 µM [rising, full curve] | 0.224 µM [rising, full curve, poor fit]
50 | Cc1cc(C)n(CC(=O)N2CCCC(C(=O)c3cccc(OC(C)C)c3)C2)n1 (stereo not drawn) | 14.1 µM [falling, single point] | 35.5 µM [falling, single point]
51 | CC(=O)Nc1ccccc1-c1nnn(CC(=O)Nc2ccc3c(c2)OCCO3)n1 | 22.4 µM [falling, single point] | 
52 | N#C/C(=C\c1cn[nH]c1-c1ccc(Cl)cc1)C(=O)NC1CC1 | 11.2 µM [rising, partial curve, poor fit] | 28.2 µM [rising, single point]
53 | C=C(C)CNC(=S)N/N=C\c1ccc2c(c1)OCO2 | 0.01 µM [rising, full curve, poor fit] | 0.00708 µM [rising, full curve, poor fit]
54 | O=C(Nc1ncc2c(n1)-c1ccccc1CC2)c1cccc(Cl)c1 | 35.5 µM [falling, single point] | 35.5 µM [falling, single point]
55 | Cc1cc(C)cc(NS(=O)(=O)c2ccc3c(c2)c(=O)n(C)c(=O)n3C)c1 |  | 7.94 µM [rising, partial curve]
